According to paper PMC6137978:
These are yes or no findings as the source states them, for the method shown.

Molecular target: T1, Gnp4/LAX2, full length, two-hybrid bait (rice (Oryza sativa)), G3XKQ9
T1 chain: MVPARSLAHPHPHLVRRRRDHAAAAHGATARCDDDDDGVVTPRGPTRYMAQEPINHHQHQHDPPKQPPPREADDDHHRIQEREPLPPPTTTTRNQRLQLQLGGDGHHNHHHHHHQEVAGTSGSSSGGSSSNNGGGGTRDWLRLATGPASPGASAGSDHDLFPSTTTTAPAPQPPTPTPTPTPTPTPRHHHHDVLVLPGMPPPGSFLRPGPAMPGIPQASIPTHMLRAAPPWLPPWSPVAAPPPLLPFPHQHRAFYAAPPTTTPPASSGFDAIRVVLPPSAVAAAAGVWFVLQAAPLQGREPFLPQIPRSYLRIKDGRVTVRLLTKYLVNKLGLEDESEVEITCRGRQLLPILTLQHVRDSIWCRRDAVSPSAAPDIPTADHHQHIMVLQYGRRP
Experiment: two-hybrid; yeast AH109; Gnp4 full length or truncated in pBGKT7 as bait, pGADT7 preys; growth on SD/-T-L-H-A; library screen and test of constructs
Conditions: remark: other sources report otherwise

binding: no binding
B1: LAX1, Q7XAQ6 1-215 (protein)
chain: MHDPRGFPIHPQPYHLHPTAGGLGEGRMRGGGRRRPGAKLSTDPQSVAARERRHRISDRFRVLRSLVPGGSKMDTVSMLEQAIHYVKFLKAQVTLHQAALVQHEEGCQHADVAAAFSAADADLALELNHRHGGAGDDDAGMTTLEMAPMQEAVGYGDGPAHQMMQQALDPAGQLMMGGAHQLPPLPCCVFVQETDPSCYSVCNVHGEESGAQGSY
